According to patent US20230181719A1, “NGR CONJUGATES AND USES THEREOF” (OSPEDALE SAN RAFFAELE S.R.L., priority 2020, published 2023):
These are yes or no findings as the source states them, for the method shown. Some binding calls cover weakened binding; strength is not graded here.

By UniProt entry, the sequences of proteins in these tests, tags left out. Where a name states a change or a piece, a line headed by the entry shows the natural chain unless it says otherwise.
UniProt P06756: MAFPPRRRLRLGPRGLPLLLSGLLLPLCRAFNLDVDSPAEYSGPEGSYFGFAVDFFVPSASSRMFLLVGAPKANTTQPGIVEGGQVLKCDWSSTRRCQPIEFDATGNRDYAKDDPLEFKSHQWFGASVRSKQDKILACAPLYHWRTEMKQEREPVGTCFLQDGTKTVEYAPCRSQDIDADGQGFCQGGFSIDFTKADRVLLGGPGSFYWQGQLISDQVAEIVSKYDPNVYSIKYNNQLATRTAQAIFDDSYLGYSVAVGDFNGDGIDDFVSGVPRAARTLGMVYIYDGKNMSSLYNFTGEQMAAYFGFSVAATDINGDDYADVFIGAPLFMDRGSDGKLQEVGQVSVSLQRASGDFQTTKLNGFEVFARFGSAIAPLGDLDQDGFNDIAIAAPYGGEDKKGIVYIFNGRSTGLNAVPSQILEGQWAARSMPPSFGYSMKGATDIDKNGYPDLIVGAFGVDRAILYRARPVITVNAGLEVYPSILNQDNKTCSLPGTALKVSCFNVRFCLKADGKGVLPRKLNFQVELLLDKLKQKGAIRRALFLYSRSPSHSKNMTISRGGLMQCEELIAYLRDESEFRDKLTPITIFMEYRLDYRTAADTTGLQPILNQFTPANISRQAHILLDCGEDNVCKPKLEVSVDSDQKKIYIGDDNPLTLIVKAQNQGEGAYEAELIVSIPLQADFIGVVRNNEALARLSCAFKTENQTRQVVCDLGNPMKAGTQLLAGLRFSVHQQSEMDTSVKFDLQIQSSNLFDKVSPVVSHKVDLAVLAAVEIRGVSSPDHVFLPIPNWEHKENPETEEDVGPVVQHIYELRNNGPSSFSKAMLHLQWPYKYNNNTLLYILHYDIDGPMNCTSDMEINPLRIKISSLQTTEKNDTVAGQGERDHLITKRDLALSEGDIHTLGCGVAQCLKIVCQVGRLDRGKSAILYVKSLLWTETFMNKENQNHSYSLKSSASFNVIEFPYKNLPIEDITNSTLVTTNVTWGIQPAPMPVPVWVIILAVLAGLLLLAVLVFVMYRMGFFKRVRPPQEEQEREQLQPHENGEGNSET
UniProt P08648: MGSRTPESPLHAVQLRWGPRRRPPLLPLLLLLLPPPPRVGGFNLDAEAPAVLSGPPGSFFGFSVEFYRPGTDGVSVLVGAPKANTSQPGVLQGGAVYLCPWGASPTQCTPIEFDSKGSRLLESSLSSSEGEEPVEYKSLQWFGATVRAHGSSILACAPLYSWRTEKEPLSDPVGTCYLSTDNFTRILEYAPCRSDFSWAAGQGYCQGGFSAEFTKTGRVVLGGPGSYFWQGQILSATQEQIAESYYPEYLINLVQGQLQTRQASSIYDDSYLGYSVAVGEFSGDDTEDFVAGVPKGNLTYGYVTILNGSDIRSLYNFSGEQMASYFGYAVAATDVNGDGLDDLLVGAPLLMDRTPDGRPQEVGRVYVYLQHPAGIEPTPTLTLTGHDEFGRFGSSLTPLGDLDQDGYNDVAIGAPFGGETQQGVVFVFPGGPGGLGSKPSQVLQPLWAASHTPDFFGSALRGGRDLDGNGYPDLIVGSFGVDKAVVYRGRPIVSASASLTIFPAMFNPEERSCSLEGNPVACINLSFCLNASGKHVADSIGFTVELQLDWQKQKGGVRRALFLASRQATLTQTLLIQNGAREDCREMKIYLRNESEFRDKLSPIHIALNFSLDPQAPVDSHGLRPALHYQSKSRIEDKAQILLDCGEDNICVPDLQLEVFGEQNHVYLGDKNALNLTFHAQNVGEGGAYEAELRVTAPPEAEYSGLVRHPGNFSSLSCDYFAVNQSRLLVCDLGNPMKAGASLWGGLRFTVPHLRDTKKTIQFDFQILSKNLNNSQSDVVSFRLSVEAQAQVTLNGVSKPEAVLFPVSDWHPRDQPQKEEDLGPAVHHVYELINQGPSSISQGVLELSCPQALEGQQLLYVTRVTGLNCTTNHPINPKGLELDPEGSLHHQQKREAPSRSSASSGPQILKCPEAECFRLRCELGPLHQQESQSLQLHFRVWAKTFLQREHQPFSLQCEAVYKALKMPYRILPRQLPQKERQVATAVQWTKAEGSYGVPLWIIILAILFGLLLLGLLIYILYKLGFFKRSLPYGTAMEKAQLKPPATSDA

Columns and labels:
Assay in all cases: competitive binding assay, integrin-coated plates
αvβ8 integrin = target: T1, αvβ8 integrin (UniProt P06756 31-992; P26012 43-684, limits assumed)
T1 construct: Coated on microtiter plates

αvβ3 integrin = target: T2, αvβ3 integrin (UniProt P06756 31-992; P05106 27-718, limits assumed)
T2 construct: Coated on microtiter plates

αvβ5 integrin = target: T3, αvβ5 integrin (UniProt P06756 31-992; P18084 24-719, limits assumed)
T3 construct: Coated on microtiter plates

α5β1 integrin = target: T4, α5β1 integrin (UniProt P08648 42-995; P05556 21-728, limits assumed)
T4 construct: Coated on microtiter plates

αvβ6 integrin = target: T5, αvβ6 integrin (UniProt P06756 31-992; P18564 22-707, limits assumed)
T5 construct: Coated on microtiter plates

Measured: binding

B1: SCDGRCGVRY peptide (peptide)
peptide: SCDGRCGVRY
binds: all assays above
